The source of these data is patent US5071749A, “Glycopetide antibiotic PA-45052-B” (Shionogi & Co., Ltd., priority 1987, dated 1991).

The series has as its system broiler chicks. Kind of series: Growth-stimulation test on chicks. It is filed as in vivo, broiler chicks (arbor acre). Conditions: 20 ppm in feed for 14 days. An excerpt:
The growth-stimulating activities of PA-45052-A, PA-45052-B and PA-45052-E on broiler chicks (arbor acre, 8 days old) were investigated by using the known antibiotic thiopeptin as a referential agent. Chicks were fed with a feed mush (crude protein (CP) concentration 18%, each agent's concentration 20 ppm, not supplemented with other antibiotics) for 14 days in the battery brooders. The method of this experiment was as follows. After chicks were fed by floor pen with a feed (CP concentration 23%) from 0 to 8 days, they were divided into 5 groups (24 chicks a group, 12 male and 12 female) in such a way that the average weights of the groups are equal. To each group was administered PA-45052-A (20 ppm), PA-45052-B (20 ppm), PA-45052-E (20 ppm), thiopeptin (20 ppm) or only a feed (CP 18%) for 14 days. Each group was fed in cages (435×600×410 mm, each cage has 6-7 chicks) at 26°±2° C. for 14 days (up to 22 days old). Effectiveness was estimated from the increase of weight and the feed efficiency.

On to `CNC(CC(C)C)C(=O)NC1C(=O)NC(CC(N)=O)C(=O)NC2C(=O)NC3C(=O)NC(C(=O)NC(C(=O)O)c4cc(O)cc(O)c4-c4cc3ccc4O)C(OC3CC(C)(N)C(O)C(C)O3)c3ccc(c(Cl)c3)Oc3cc2cc(c3OC2OC(CO)C(O)C(O)C2O)Oc2ccc(cc2Cl)C1O` (stereo not drawn) [PA-45052-B], for which the “Feed efficiency B (M = g), average intake of feed” value (shortened to “Feed efficiency B (M = g)”) stood at 702.1 g.

thiopeptin [reference compound]: the “Feed efficiency B (M = g)” value is given as 697.1 g.

For the compound `CNC(CC(C)C)C(=O)NC1C(=O)NC(CC(N)=O)C(=O)NC2C(=O)NC3C(=O)NC(C(=O)NC(C(=O)O)c4cc(O)cc(O)c4-c4cc3ccc4O)C(OC3CC(C)(N)C(O)C(C)O3)c3ccc(c(Cl)c3)Oc3cc2cc(c3OC2OC(CO)C(O)C(O)C2OC2CC(C)(N)C(O)C(C)O2)Oc2ccc(cc2Cl)C1O` (stereo not drawn) [PA-45052-A], the “Feed efficiency B (M = g)” value worked out at 719.1 g.
